From PubChem BioAssay AID222 (DTP/NCI, 2004)
The list does not hold the whole screen: it is rich in T/C values a quarter to a half above the control, in often repeated tests (any T/C) and in doses without a T/C. Further doses and runs are listed elsewhere. T/C is the treated group as % of the vehicle group. Some doses have a count of surviving animals in place of a T/C: the source holds a T/C of zero for them, seemingly a mark for toxic or unscored doses. Some survivor counts are full or nearly so, which does not show that the dose was tolerated: the source hardly ever lists a survival T/C far under the control, and the zero likely stands for such cases as well. Survivors were counted at the toxicity check, usually on the fifth day, unless a day is given; later deaths do not show. Schedules are NCI's codes, read here as Q, the interval in days (D) or hours (H), X, the number of doses. Some entries hold several experiments; their values stand side by side, smallest first. For survival time, the PubChem record calls one and a half times the control and up active, and a quarter to a half above the control has no call in these data; cut-offs in other NCI protocols can differ. Some T/C values carry the count of animals alive at the toxicity check (mostly the fifth day); where none is given, no animal had died by that day. Counts like (3×) give the number of equal values in this list. Starred links: 1 amine or outer side, 2 acyl side, 3 side chain; linkers in the order of their positions; H or OH if unused. Positions of bridges follow the written chain, without caps; N, C: chain ends. Non-standard residues stand in square brackets, D forms with d. Residues, ends and D or L forms follow the SMILES beside them. Chains are numbered I, II in the order given. Actinocin(1to9) = Cc1c2oc3c(C)ccc(C(=O)[*:2])c3nc-2c(C(=O)[*:1])c(N)c1=O; NMeV = CN[CH](C(=O)O)C(C)C; Aze = O=C(O)[CH]1CCN1; Sar = CNCC(=O)O

System: C57BL/6 mice, intracerebral ependymoblastoma, median survival T/C
Assay: NCI In Vivo Anticancer Drug Screen. Data for tumor model Ependymoblastoma (intracerebral) in C57BL/6 mice
Conditions: T/C endpoint: median survival time, higher T/C = longer survival
Protocol: The antitumor activity of compounds was measured in mice bearing transplantable tumors. Survival or tumor size were measured and the results are expressed as the measurement made in the treated group (T) divided by the measurement made in the vehicle treated control group (C). The tumor model used in this assay is Ependymoblastoma (intracerebral) in C57BL/6 mice

[1] = dose: 16.0 mg/kg/injection, schedule: Q01DX005 (ip), vehicle: Klucel (hydroxypropylcellulose) (HPC)

N[C@@H](Cc1ccc(N(CCCl)CCCl)cc1)C(=O)O
T/C (dose: 0.5 mg/kg/injection, schedule: Q01DX005 (ip), vehicle: saline): 131 % of control
T/C (dose: 2.0 mg/kg/injection, schedule: Q01DX005 (ip), vehicle: saline): 141 % of control
survivor count (dose: 4.0 mg/kg/injection, schedule: Q01DX001 (ip), vehicle: saline): 10 of 10
T/C (dose: 4.0 mg/kg/injection, schedule: Q01DX005 (ip), vehicle: saline): 127 % of control
survivor count (dose: 8.0 mg/kg/injection, schedule: Q01DX005 (ip), vehicle: saline): 8 of 10 and 9 of 10
T/C (dose: 16.0 mg/kg/injection, schedule: Q01DX005 (ip), vehicle: saline): 131 % of control
survivor count (dose: 32.0 mg/kg/injection, schedule: Q01DX005 (ip), vehicle: saline): 4 of 6

CC1CCC(NC(=O)N(CCCl)N=O)CC1 (configuration not stated)
T/C (dose: 0.5 mg/kg/injection, schedule: Q01DX005 (ip), vehicle: Klucel (hydroxypropylcellulose) (HPC)): 103, 106, 106 [9 of 10 alive], 113, 116, 119 % of control
T/C (dose: 1.0 mg/kg/injection, schedule: Q01DX005 (ip), vehicle: Klucel (hydroxypropylcellulose) (HPC)): 105 [9 of 10 alive], 110 (2×), 116, 121, 133 % of control
T/C (dose: 2.0 mg/kg/injection, schedule: Q01DX005 (ip), vehicle: Klucel (hydroxypropylcellulose) (HPC)): 101 [9 of 10 alive], 107, 112, 117 [9 of 10 alive], 119, 137 % of control
T/C (dose: 4.0 mg/kg/injection, schedule: Q01DX005 (ip), vehicle: Klucel (hydroxypropylcellulose) (HPC)): 120, 128, 132, 133, 147, 149 % of control
T/C (dose: 8.0 mg/kg/injection, schedule: Q01DX005 (ip), vehicle: Klucel (hydroxypropylcellulose) (HPC)): 111, 130, 149 [9 of 10 alive], 151, 160, 302 % of control
T/C [1]: 125 % of control [9 of 10 alive]
survivor count [1]: 9 of 10 and 10 of 10
survivor count (dose: 32.0 mg/kg/injection, schedule: Q01DX005 (oral), vehicle: Klucel (hydroxypropylcellulose) (HPC)): 9 of 10
survivor count (dose: 64.0 mg/kg/injection, schedule: Q01DX005 (oral), vehicle: Klucel (hydroxypropylcellulose) (HPC)): 9 of 10
survivor count (dose: 128.0 mg/kg/injection, schedule: Q01DX005 (oral), vehicle: Klucel (hydroxypropylcellulose) (HPC)): 5 of 10

O=c1ccc2ccccc2o1
survivor count (dose: 360.0 mg/kg/injection, schedule: Q01DX005 (ip), vehicle: saline with Tween-80): 6 of 10
survivor count (dose: 1440.0 mg/kg/injection, schedule: Q01DX005 (ip), vehicle: saline with Tween-80): 5 of 10

Cc1c2oc3c(C)ccc(C(=O)NC4C(=O)NC(C(C)C)C(=O)N5CCCC5C(=O)N(C)CC(=O)N(C)C(C(C)C)C(=O)OC4C)c3nc-2c(C(=O)NC2C(=O)NC(C(C)C)C(=O)N3CCC3C(=O)N(C)CC(=O)N(C)C(C(C)C)C(=O)OC2C)c(N)c1=O (configuration not stated) (I: TV[Aze][Sar][NMeV] / II: TVP[Sar][NMeV]; ester I:1-I:C, II:1-II:C; linker I:N-II:N via Actinocin(1to9); configuration not given here)
survivor count (dose: 200.0 micrograms/kg/injection, schedule: Q01DX005 (ip), vehicle: saline): 5 of 6
survivor count (dose: 400.0 micrograms/kg/injection, schedule: Q01DX005 (ip), vehicle: saline): 3 of 6
survivor count (dose: 800.0 micrograms/kg/injection, schedule: Q01DX005 (ip), vehicle: saline): 0 of 6
